Structures are written as SMILES. Where a name gives a salt, the structure may show the parent alone. Some of the results follow. Small differences around the control level are noise.

The first assay has as its system hPSC-derived cortical neurons (WA09). The experiment in a line: nucleus roundness z-score vs screen plate; higher = rounder nuclei (more mature). To be noted: 5 µM; treatment: days 7-14 after plating, readout day 21.
Compound `CN1CCN(c2c(F)cc3c(=O)c(C(=O)O)cn4c3c2OCN4C)CC1` [Marbofloxacin] had a nucleus roundness z-score of -0.972.

On to `CS(=O)(=O)c1ccc(-c2nnc(/C=C/c3nnc(-c4ccc(C#N)cc4)o3)n2-c2ccccc2Cl)nc1`, for which the nucleus roundness z-score came out at 0.492. Turning to `CCCCC[C@H](O)/C=C/[C@H]1[C@H](O)CC(=O)[C@@H]1CCCCCCC(=O)O` [Alprostadil], the nucleus roundness z-score came out at 0.0667. Same read-out and setting: to `CC1CNc2c(cccc2S(=O)(=O)N[C@@H](CCCNC(=N)N)C(=O)N2CC[C@@H](C)C[C@@H]2C(=O)O)C1` (stereo partly specified) [Argatroban] belongs -0.000867; to `CC1=NN(c2ccc(C)c(C)c2)C(=O)/C1=N\Nc1cccc(-c2cccc(C(=O)O)c2)c1O` [Eltrombopag Olamine], -0.00842; to `CCOc1nc2cccc(C(=O)OCc3oc(=O)oc3C)c2n1Cc1ccc(-c2ccccc2-c2noc(=O)[nH]2)cc1` [Azilsartan Medoxomil], 1.88.

In the case of `CNC[C@H](O)c1ccc(O)c(O)c1` [Epinephrine Bitartrate], the nucleus roundness z-score was -0.376. On the same count and under the same terms, to `O=P(O)(O)C(Cl)(Cl)P(=O)(O)O` [Clodronate Disodium] belongs 1.4.

For the next assay the test system is unchanged. The experiment in a line: KCl-induced FOS+/EGR-1+ double-positive nuclei fraction z-score (KCl minus unstimulated); higher = stronger activity-induced IEG response. To be noted: 5 µM; treatment: days 7-14 after plating, readout day 21.
With `COc1cc2nc(N3CCCC3)nc(NCCCCCN3CCCC3)c2cc1OC`, the “KCl-induced FOS+/EGR-1+ double-positive nuclei fraction z-score” value stood at 0.814. In the case of `CCOC(=O)c1ccc(N2NC(=O)C(=Cc3ccc([N+](=O)[O-])o3)C2=O)cc1`, the “KCl-induced FOS+/EGR-1+ double-positive nuclei fraction z-score” value is 2.83.

Regarding `Cc1ccc(NC(=O)Nc2cc(C(F)(F)F)ccc2F)cc1Nc1ccc2c(c1)NC(=O)/C2=C\c1ccc[nH]1`, the “KCl-induced FOS+/EGR-1+ double-positive nuclei fraction z-score” value is -0.562. The same measure, in the same setting: to `Cc1c(Nc2ncccc2C(=O)O)cccc1C(F)(F)F` [Flunixin Meglumin] belongs -0.88; to `C[C@@H]1CC(=O)NN=C1c1ccc(NN=C(C#N)C#N)cc1` [Levosimendan], 2.77; to `CN(C)CC/C=C1/c2ccccc2Sc2ccc(Cl)cc21` [Chlorprothixene], -0.866. Consider `COC(=O)c1ccc2c(c1)[nH]c1ncnc(NCCCN3CCCCC3)c12`, for which the “KCl-induced FOS+/EGR-1+ double-positive nuclei fraction z-score” value is 3.47. Still for that read-out and setting: in the case of `CCC(=O)c1c(O)cc(O)cc1O` [Flopropione] it was -0.0127; in that of `CC(C)(CO)C(O)C(=O)NCCC(=O)O` [Calcium D-Panthotenate], -0.0311; in that of `CCOC(=O)[C@H](CCc1ccccc1)N[C@H]1CCCN2CCC[C@@H](C(=O)O)N2C1=O` [Cilazapril Monohydrate], 0.974. Regarding `O=C(CSc1nc2c(c(=O)n1-c1ccccc1)SCC2)Nc1ccc(-c2ccccc2)cn1`, the “KCl-induced FOS+/EGR-1+ double-positive nuclei fraction z-score” value was found to be 0.267. The same measure, in the same setting: to `CCCOc1ccn2c(C(C)=O)cc(-c3ccccc3S(C)(=O)=O)c2c1` belongs 1.71.

As to `O=C1N=C(O)NC1(c1ccccc1)c1ccccc1` [Phenytoin sodium], the “KCl-induced FOS+/EGR-1+ double-positive nuclei fraction z-score” value worked out at 1.1.

With `CC(C)(O/N=C(\C(=O)N[C@@H]1C(=O)N2C(C(=O)[O-])=C(C[n+]3ccccc3)CS[C@H]12)c1csc(N)n1)C(=O)O` [Ceftazidime Pentahydrate], the “KCl-induced FOS+/EGR-1+ double-positive nuclei fraction z-score” value was 1.48.

For the compound `C[C@]12CCC3=C4CCC(=O)C=C4CC[C@H]3[C@@H]1CC[C@@]2(O)CC#N` [Dienogest], the “KCl-induced FOS+/EGR-1+ double-positive nuclei fraction z-score” value is 0.268.

Consider `[I-].[K+]` [Potassium Iodide], for which the “KCl-induced FOS+/EGR-1+ double-positive nuclei fraction z-score” value is -0.0743. Turning to `COc1ccc(-c2cc(=O)c3c(O)cc(O[C@@H]4O[C@H](CO[C@@H]5O[C@@H](C)[C@H](O)[C@@H](O)[C@H]5O)[C@@H](O)[C@H](O)[C@H]4O)cc3o2)cc1O` [Diosmin], the “KCl-induced FOS+/EGR-1+ double-positive nuclei fraction z-score” value came out at 1.55. `CCN(CC)CC(=O)Nc1c(C)cccc1C` [Lidocaine hydrochloride]: the “KCl-induced FOS+/EGR-1+ double-positive nuclei fraction z-score” value worked out at 1.61. Turning to `O=C(O)c1ccc(C=C2SC(=S)N(c3cccc(C(F)(F)F)c3)C2=O)cc1`, the “KCl-induced FOS+/EGR-1+ double-positive nuclei fraction z-score” value is 0.602. In the case of `CCN(CC)CCNC(C(=O)OCCC(C)C)c1ccccc1` (stereo unspecified) [Camylofin Chlorhydrate], the “KCl-induced FOS+/EGR-1+ double-positive nuclei fraction z-score” value was 0.564. With `CN(CCOc1ccc(NS(C)(=O)=O)cc1)CCc1ccc(NS(C)(=O)=O)cc1` [Dofetilide], the “KCl-induced FOS+/EGR-1+ double-positive nuclei fraction z-score” value worked out at 0.232. The same measure, in the same setting: in the case of `NNc1nncc2ccccc12` [Hydralazine HCl] it was -0.512; in that of `COc1cccc(C=NCCN=Cc2cccc(OC)c2[O-])c1[O-].[Cl-].[Mn+3]`, -0.0304; in that of `NCC[C@H](O)C(=O)N[C@@H]1C[C@H](N)[C@@H](O[C@H]2O[C@H](CN)[C@@H](O)[C@H](O)[C@H]2O)[C@H](O)[C@H]1O[C@H]1O[C@H](CO)[C@@H](O)[C@H](N)[C@H]1O` [Amikacin disulfate], 5.09. For the compound `Cc1ncc([N+](=O)[O-])n1CC(C)O` (stereo unspecified) [Secnidazole], the “KCl-induced FOS+/EGR-1+ double-positive nuclei fraction z-score” value is -0.0768. On to `COc1ccc(C(C)=O)c(O)c1` [Paeonol], for which the “KCl-induced FOS+/EGR-1+ double-positive nuclei fraction z-score” value was found to be 1.09. Regarding `Cc1cc(O)c2c(c1)C(=O)c1cc(O)cc(O)c1C2=O` [Emodin], the “KCl-induced FOS+/EGR-1+ double-positive nuclei fraction z-score” value is -0.462. Turning to `CC1CCN(CC[C@H]2CCCN2S(=O)(=O)c2cccc(O)c2)CC1`, the “KCl-induced FOS+/EGR-1+ double-positive nuclei fraction z-score” value was 0.435.

The record behind these values is the supplement of paper PMC11348887.
